# Experimental data reported in article PMC7819943, “Rice protein-binding microarrays: a tool to detect cis-acting elements near promoter regions in rice”.
# The list shows a part of the results.
# Target: T1, OsSMF1 (Oryza sativa, UniProt Q6ZLB0 1-436)
# T1 sequence: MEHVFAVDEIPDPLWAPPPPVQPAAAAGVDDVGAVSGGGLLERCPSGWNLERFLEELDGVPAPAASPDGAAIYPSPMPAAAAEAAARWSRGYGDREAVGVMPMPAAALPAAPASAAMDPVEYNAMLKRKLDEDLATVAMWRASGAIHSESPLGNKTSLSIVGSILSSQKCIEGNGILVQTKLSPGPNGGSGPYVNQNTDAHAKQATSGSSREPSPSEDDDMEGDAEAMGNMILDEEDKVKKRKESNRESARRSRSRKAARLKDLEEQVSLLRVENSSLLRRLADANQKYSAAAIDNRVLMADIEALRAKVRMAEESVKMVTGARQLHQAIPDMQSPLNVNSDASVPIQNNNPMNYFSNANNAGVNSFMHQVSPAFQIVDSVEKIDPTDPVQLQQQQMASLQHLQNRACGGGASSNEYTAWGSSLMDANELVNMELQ
# Assay: protein-binding microarray (RPBM); PBS, 2% BSA, 51.3 ng/ul salmon testes DNA, 50 uM zinc acetate, 200 nM TF, 25 C, 1 h; high values mean tight binding
# Details: protein: recombinant; tags: N-terminal polyhistidine and DsRed monomer fusion (pET32a); chain copies: 2; label: CyDye5-dUTP incorporated in the synthesized complementary strand; 3' TTTTT single-stranded linker to array surface; dsDNA, one strand shown
# Method in brief: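 Using Ni–NTA, transcription factors fused N-terminally to polyhistidine and DsRed were purified after expression in E. coli BL21-CodonPlus. These were incubated at 200 nM with a blocked, double-stranded custom Agilent array for 1 h at 25 °C in a buffer containing 50 µM zinc acetate, and the array was washed. The binding signal is per-feature fluorescence intensity (arbitrary units) on an Axon 4000B scanner.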
row,Sequence,binding signal
1,TTCCGCACCATCCATACAGACTGGCGTGTAGGCCCCACCTCGGAGTCACCTAGTGCAG,3530 fluorescence intensity (a.u.)
2,TGTGATCCATGCCTCCAGCAGGACATCATGATTAGCATGTCGGAGTCACCTAGTGCAG,3850 fluorescence intensity (a.u.)
3,AGGTGGTGAAGTGGAGTGGAGTGGAGAGTATCTTCTTCTTCGGAGTCACCTAGTGCAG,3340 fluorescence intensity (a.u.)
4,CCACCGCTGACGCCATCACGTCGTCAGTGATAACGGCGACCGGAGTCACCTAGTGCAG,6440 fluorescence intensity (a.u.)
5,CCCACCCGACAGTGACACTCCATCATCATGACATCACGAGCGGAGTCACCTAGTGCAG,10700 fluorescence intensity (a.u.)
6,ATGACAGCATGCACCGATCGCTTCCATAGACGACGTCACACGGAGTCACCTAGTGCAG,3280 fluorescence intensity (a.u.)
7,GCACTTCCTATTTAAGCACCGCCGCGGGTGACACCGTCCCCGGAGTCACCTAGTGCAG,3330 fluorescence intensity (a.u.)
8,GACTTGTTTTGGGACATCGATTTTCGGCCTGACACATAGTCGGAGTCACCTAGTGCAG,3800 fluorescence intensity (a.u.)
9,GAATGGCTGCGAGGACAACACGTACGCCGTCTCGGCCGGCCGGAGTCACCTAGTGCAG,3960 fluorescence intensity (a.u.)
10,AAAGGTGTACGTATGTACGTAGATACGTGTAGACCTCACCCGGAGTCACCTAGTGCAG,3580 fluorescence intensity (a.u.)
11,GGCGTAATTAGGCTTAAAAGATTCGTCAGGCAATTTACCCCGGAGTCACCTAGTGCAG,3740 fluorescence intensity (a.u.)
12,GGGCGCGGGAGTAGCAGCCGCGGTGCGGTGAGGTGGCGGGCGGAGTCACCTAGTGCAG,6820 fluorescence intensity (a.u.)
13,TGCCTTCTTCCTCCAGATTCCGTCCATCTGTGCAGAGAGTCGGAGTCACCTAGTGCAG,3510 fluorescence intensity (a.u.)
14,TAGGTGAAGTTTAGAAAAGATTAGAGCCTTCACATTGAGGCGGAGTCACCTAGTGCAG,15400 fluorescence intensity (a.u.)
15,ATTGTTGGGTTTAGTCCCACATCAGTAATTGATGATGGGGCGGAGTCACCTAGTGCAG,3370 fluorescence intensity (a.u.)
16,CGGCCGTGTTAAGCCTCTTCCAAAGTCAGCTGAGTTGTGCCGGAGTCACCTAGTGCAG,5460 fluorescence intensity (a.u.)
17,TCCAAAATCAATAAATTCTAGCACGTCACTCCGTAAGTACCGGAGTCACCTAGTGCAG,5120 fluorescence intensity (a.u.)
18,CAGAAAATAGTTGCTCCCGAAATTGGAATCTGAAAATCGCCGGAGTCACCTAGTGCAG,24900 fluorescence intensity (a.u.)
19,CGTACGGTCTCGATCGCCGGCCACGTGGTGGATATTAAATCGGAGTCACCTAGTGCAG,8860 fluorescence intensity (a.u.)
20,TAACTCACGAGGTTCCCCTGAAGGACATCAACACGGCATTCGGAGTCACCTAGTGCAG,3460 fluorescence intensity (a.u.)
21,CTCCACATAACTAGAAATATGATGTGGCAACTTGTATAGTCGGAGTCACCTAGTGCAG,14100 fluorescence intensity (a.u.)
22,TTCCACCACACGTGGAATCGTGGATTGCCAAATTGCCATGCGGAGTCACCTAGTGCAG,5610 fluorescence intensity (a.u.)
23,TACAGCAGTAAGATGCGTCGCCACGTTGTTTCACATTGCACGGAGTCACCTAGTGCAG,5760 fluorescence intensity (a.u.)
24,GTTTTCTACTGTGCACGTGCGTACGTTGGTTTCCTCTTGGCGGAGTCACCTAGTGCAG,3580 fluorescence intensity (a.u.)
25,ACCAGTGCGCCACTGCCAGCGCAGCACCCGCCCGGTTTAACGGAGTCACCTAGTGCAG,3240 fluorescence intensity (a.u.)
26,ACGCTCAGCTTCTCGAAGCACACGTCGCGTCCCACCACGTCGGAGTCACCTAGTGCAG,4040 fluorescence intensity (a.u.)
27,ACTTTGAGTAGAGTTAGTAGTACAACCCTGGCCCATGACGCGGAGTCACCTAGTGCAG,25800 fluorescence intensity (a.u.)

# Part of the list above, as tab-separated lines:
row	Sequence	binding signal
1	TTCCGCACCATCCATACAGACTGGCGTGTAGGCCCCACCTCGGAGTCACCTAGTGCAG	3530 fluorescence intensity (a.u.)
21	CTCCACATAACTAGAAATATGATGTGGCAACTTGTATAGTCGGAGTCACCTAGTGCAG	14100 fluorescence intensity (a.u.)

# Some values from above.
# binding signal, TAACTCACGAGGTTCCCCTGAAGGACATCAACACGGCATTCGGAGTCACCTAGTGCAG reads 3460 fluorescence intensity (a.u.)
# binding signal, GGGCGCGGGAGTAGCAGCCGCGGTGCGGTGAGGTGGCGGGCGGAGTCACCTAGTGCAG reads 6820 fluorescence intensity (a.u.)

# Additional entries follow:

row,Sequence,binding signal
1,GGTCGAGATATCCCGTATCGTGATTCAGCCATATAAATCACGGAGTCACCTAGTGCAG,3890 fluorescence intensity (a.u.)
2,TCCATGATTTGTCACGTGGGTGTTCAGTGCTATAGCTCCTCGGAGTCACCTAGTGCAG,4170 fluorescence intensity (a.u.)
3,TTAGCAGAAGCCGCGCACCACGCGCACGCGCACGTCCGCGCGGAGTCACCTAGTGCAG,5320 fluorescence intensity (a.u.)
4,GAGTAGGCCCTGACGGCGACCCTCGCGGTCATGCCCAGCACGGAGTCACCTAGTGCAG,4610 fluorescence intensity (a.u.)
5,TCTAGAGGAATGAGCGGGAGAAATGGAGAGAAAAGAGAGGCGGAGTCACCTAGTGCAG,3210 fluorescence intensity (a.u.)
6,CACGTACACAATTATGTTGGCTATAGTGAATCCTAGATTGCGGAGTCACCTAGTGCAG,3170 fluorescence intensity (a.u.)
7,CGGCCGTGCCGCTTCCGAGTTCGTCCGTGTGCACTGCCCTCGGAGTCACCTAGTGCAG,3360 fluorescence intensity (a.u.)
8,GGCAACCGCCCTTAAGGTGTGAGACAGCACGACAACGCCCCGGAGTCACCTAGTGCAG,3690 fluorescence intensity (a.u.)
9,AAAGCTCGCGGCGTAAAGAAGTTGCTGCGTAATGCATGCCCGGAGTCACCTAGTGCAG,3190 fluorescence intensity (a.u.)
10,CTTAAAGCAGTTTGACTTTGACCAAAGTCAAAACGTCTTACGGAGTCACCTAGTGCAG,40600 fluorescence intensity (a.u.)
11,ACGCCTCACCTCACCTCACCTCACCGCCGTCTCCTTCCTCCGGAGTCACCTAGTGCAG,3280 fluorescence intensity (a.u.)
12,ATCGTTTTCTGTCTCTTACGTGTACCTTTCAATACCCATCCGGAGTCACCTAGTGCAG,10200 fluorescence intensity (a.u.)
13,CCAACTAAAGCACGCCTTGCCATTGGTTGACTCTGCACCTCGGAGTCACCTAGTGCAG,3890 fluorescence intensity (a.u.)
14,CCTCTCTTAACACTGCACACTGCCAACTTATCCATCAATTCGGAGTCACCTAGTGCAG,3160 fluorescence intensity (a.u.)
15,TCTCAAGGCCCTCGTCCTGGTACGCCATTAATACCCACCACGGAGTCACCTAGTGCAG,25400 fluorescence intensity (a.u.)
16,TATAACTTACTTTCCTCTGACATAGATCGATATCTAGACCCGGAGTCACCTAGTGCAG,3630 fluorescence intensity (a.u.)
17,GTCACCTTAACCTCAGTGTTGTTTCACCTGCCACGCCAGCCGGAGTCACCTAGTGCAG,7130 fluorescence intensity (a.u.)
18,ACAGGCCATACTTGGACCTAACGTAGTGACGTTGCCACCGCGGAGTCACCTAGTGCAG,4860 fluorescence intensity (a.u.)
19,GTTGTCCTAGTCATCGGACGCCGCCCACCTACCCGACTACCGGAGTCACCTAGTGCAG,9400 fluorescence intensity (a.u.)
20,ATGCATGCTCGATCACACACACACACACGTTGTTGTTATCCGGAGTCACCTAGTGCAG,4010 fluorescence intensity (a.u.)
21,GGGGTGCCTCGAACGTCGCATCCCGTAGGATGATCCAACGCGGAGTCACCTAGTGCAG,3360 fluorescence intensity (a.u.)
22,GGGAGGCTCAAACGAAGCCACGCAGTCATACTCATATGTGCGGAGTCACCTAGTGCAG,5170 fluorescence intensity (a.u.)
23,TTCACCGTGTTCGGCGTCGCTGACATGTTCACCTTCATCGCGGAGTCACCTAGTGCAG,7760 fluorescence intensity (a.u.)
24,GGATGGATAGAACCAACGGCTGACGTGTACCCGAACGCGCCGGAGTCACCTAGTGCAG,14500 fluorescence intensity (a.u.)
25,TCCCACCACCACCACCACCAGAGCTAGCGCAGCAACCGCGCGGAGTCACCTAGTGCAG,3420 fluorescence intensity (a.u.)
26,TACTGCATGCGCAAAGAGTTAATCCGTGGGGCTCGTGGGACGGAGTCACCTAGTGCAG,45300 fluorescence intensity (a.u.)
27,GAACGTGACTTGTCATACTTGCCACATTACGCTGATCTTTCGGAGTCACCTAGTGCAG,5940 fluorescence intensity (a.u.)
